HELM strings list residues between dots; [ac] is acetyl, [am] amide, other brackets name non-standard units.

The series in a line: general procedure: Fmoc solid-phase peptide synthesis; TentaGel S RAM resin (substitution 0.24 meq/g, Rapp Polymere); N,N′-diisopropylcarbodiimide (manual attachment of Boc-CIP and LVX).

Regarding “PEPTIDE1{C.A.G.Y.L.L.G.K.I.N.L.K.A.L.A.A.L.A.K.K.I.L.[am]}|PEPTIDE2{C.[CIP-N]}$PEPTIDE1,PEPTIDE2,1:R3-1:R3$$$V2.0”, the isolated yield (whole synthesis, total yield, scale of the general procedure 50 μmole) amounted to 19%. With “PEPTIDE1{C.A.G.Y.L.L.G.K.I.N.L.K.A.L.A.A.L.A.K.K.I.L.[am]}|PEPTIDE2{[LVX-CO].C}$PEPTIDE1,PEPTIDE2,1:R3-2:R3$$$V2.0”, for the setting “conjugation step”, the conjugation yield turned out to be 20%.

(Values after publication PMC7369900 (International Journal of Molecular Sciences, 2020).)
